From publication PMC8384837
Where a chain is given by its changes, count along the chain named. This is one part of the list. For some assays here: At the low end of the ranking the order means little.

Assays:
Settings in all cases: yeast three-hybrid, YBZ-1, SC-Leu-His + 0.5 mM 3-AT, 4 days
[1] = molecular target: T1, PUM1 PUF domain R6-EWL N1043E + Y1044W + Q1047L (Homo sapiens) (UniProt Q14671)
T1 sequence: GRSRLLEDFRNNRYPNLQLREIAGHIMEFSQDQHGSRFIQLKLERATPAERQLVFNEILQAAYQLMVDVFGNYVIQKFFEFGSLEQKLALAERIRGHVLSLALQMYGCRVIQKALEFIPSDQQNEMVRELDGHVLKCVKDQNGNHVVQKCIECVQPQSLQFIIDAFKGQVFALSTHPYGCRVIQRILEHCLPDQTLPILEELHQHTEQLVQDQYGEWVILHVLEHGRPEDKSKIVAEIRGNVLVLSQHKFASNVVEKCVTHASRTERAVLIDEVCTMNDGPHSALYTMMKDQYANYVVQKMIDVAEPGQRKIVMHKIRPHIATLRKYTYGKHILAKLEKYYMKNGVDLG

[2] = molecular target: T2, PUM1 PUF domain R6-EWL N1043E + Y1044W + Q1047L (UniProt Q14671)
T2 sequence: T1 sequence

[3] = molecular target: T3, PUM1 PUF domain R6-FHR N1043F + Y1044H + Q1047R (UniProt Q14671)
T3 sequence: T1 sequence with E216F, W217H, L220R

[4] = molecular target: T4, PUM1 PUF domain R6-FWG N1043F + Y1044W + Q1047G (Homo sapiens) (UniProt Q14671)
T4 sequence: T1 sequence with E216F, L220G

[5] = molecular target: T5, PUM1 PUF domain R6-FYA N1043F + Q1047A (UniProt Q14671)
T5 sequence: T1 sequence with E216F, W217Y, L220A

[6] = molecular target: T6, PUM1 PUF domain R6-GFM N1043G + Y1044F + Q1047M (UniProt Q14671)
T6 sequence: T1 sequence with E216G, W217F, L220M

[7] = molecular target: T7, PUM1 PUF domain R6-GFQ N1043G + Y1044F (UniProt Q14671)
T7 sequence: T1 sequence with E216G, W217F, L220Q

[8] = molecular target: T8, PUM1 PUF domain R6-GHR N1043G + Y1044H + Q1047R (UniProt Q14671)
T8 sequence: T1 sequence with E216G, W217H, L220R

[9] = molecular target: T9, PUM1 PUF domain R6-GLR N1043G + Y1044L + Q1047R (UniProt Q14671)
T9 sequence: T1 sequence with E216G, W217L, L220R

[10] = molecular target: T10, PUM1 PUF domain R6-FRI N1043F + Y1044R + Q1047I (Homo sapiens) (UniProt Q14671)
T10 sequence: T1 sequence with E216F, W217R, L220I

[11] = molecular target: T11, PUM1 PUF domain R6-FRL N1043F + Y1044R + Q1047L (Homo sapiens) (UniProt Q14671)
T11 sequence: T1 sequence with E216F, W217R

[12] = molecular target: T12, PUM1 PUF domain R6-FYL N1043F + Q1047L (Homo sapiens) (UniProt Q14671)
T12 sequence: T1 sequence with E216F, W217Y

[13] = molecular target: T13, PUM1 PUF domain R6-FYQ N1043F (Homo sapiens) (UniProt Q14671)
T13 sequence: T1 sequence with E216F, W217Y, L220Q

[14] = molecular target: T14, PUM1 PUF domain R6-GFA N1043G + Y1044F + Q1047A (Homo sapiens) (UniProt Q14671)
T14 sequence: T1 sequence with E216G, W217F, L220A

[15] = molecular target: T15, PUM1 PUF domain R6-GFE N1043G + Y1044F + Q1047E (UniProt Q14671)
T15 sequence: T1 sequence with E216G, W217F, L220E

[16] = molecular target: T16, PUM1 PUF domain R6-GFR N1043G + Y1044F + Q1047R (Homo sapiens) (UniProt Q14671)
T16 sequence: T1 sequence with E216G, W217F, L220R

[17] = molecular target: T17, PUM1 PUF domain R6-GFS N1043G + Y1044F + Q1047S (Homo sapiens) (UniProt Q14671)
T17 sequence: T1 sequence with E216G, W217F, L220S

[18] = molecular target: T18, PUM1 PUF domain R6-GHR N1043G + Y1044H + Q1047R (Homo sapiens) (UniProt Q14671)
T18 sequence: T1 sequence with E216G, W217H, L220R

[19] = molecular target: T19, PUM1 PUF domain R6-GRQ N1043G + Y1044R (Homo sapiens) (UniProt Q14671)
T19 sequence: T1 sequence with E216G, W217R, L220Q

[20] = molecular target: T20, PUM1 PUF domain R6-GWI N1043G + Y1044W + Q1047I (Homo sapiens) (UniProt Q14671)
T20 sequence: T1 sequence with E216G, L220I

“GGCUAGAACUAGUGGAUCCCCCGGCGCCCGGCGGCUCGAGCCCGGGUAAGUGUAAAUAGUCUGCAUGCCGCCGGGCGCCAUGCCUGCAGGUCGACUCUAGAAAACAUG” showed a binding signal (log2 enrichment (interaction score)) [1] of 0.88.

With “GGCUAGAACUAGUGGAUCCCCCGGCGCCCGGCGGCUCGAGCCCGGGUAAGUGGAAAUAGUCUGCAUGCCGCCGGGCGCCAUGCCUGCAGGUCGACUCUAGAAAACAUG” the binding signal (log2 enrichment (interaction score)) [2] was -5.25, the binding signal (log2 enrichment (interaction score)) [3] was < -8.45 and the binding signal (log2 enrichment (interaction score)) [4] was -4.45. For the same sequence, the binding signal (log2 enrichment (interaction score)) [5] was < -7.04, the binding signal (log2 enrichment (interaction score)) [6] was < -7.48 and the binding signal (log2 enrichment (interaction score)) [7] was -7.55. For the same sequence, the binding signal (log2 enrichment (interaction score)) [8] was < -6.68 and the binding signal (log2 enrichment (interaction score)) [9] was -9.47.

“GGCUAGAACUAGUGGAUCCCCCGGCGCCCGGCGGCUCGAGCCCGGGUAAGUGAAAAUAGUCUGCAUGCCGCCGGGCGCCAUGCCUGCAGGUCGACUCUAGAAAACAUG” gave a binding signal (log2 enrichment (interaction score)) [10] of -1.41, a binding signal (log2 enrichment (interaction score)) [11] of -1.79 and a binding signal (log2 enrichment (interaction score)) [12] of -0.44. The binding signal (log2 enrichment (interaction score)) [13] was -3.58, the binding signal (log2 enrichment (interaction score)) [14] was -0.74 and the binding signal (log2 enrichment (interaction score)) [15] was -6.01. For the same sequence, the binding signal (log2 enrichment (interaction score)) [16] was -6.07, the binding signal (log2 enrichment (interaction score)) [17] was -1.68 and the binding signal (log2 enrichment (interaction score)) [18] was -5.29. The binding signal (log2 enrichment (interaction score)) [19] was 0.36 and the binding signal (log2 enrichment (interaction score)) [20] was -1.77.
